# In patent US20060188937A1, “G-protein estrogen membrane receptor” (Board Of Regents, The University Of Texas System, priority 2004, published 2006):
# Chains of the proteins cited; added tags and fusions are not shown.
# UniProt Q99527, whole entry: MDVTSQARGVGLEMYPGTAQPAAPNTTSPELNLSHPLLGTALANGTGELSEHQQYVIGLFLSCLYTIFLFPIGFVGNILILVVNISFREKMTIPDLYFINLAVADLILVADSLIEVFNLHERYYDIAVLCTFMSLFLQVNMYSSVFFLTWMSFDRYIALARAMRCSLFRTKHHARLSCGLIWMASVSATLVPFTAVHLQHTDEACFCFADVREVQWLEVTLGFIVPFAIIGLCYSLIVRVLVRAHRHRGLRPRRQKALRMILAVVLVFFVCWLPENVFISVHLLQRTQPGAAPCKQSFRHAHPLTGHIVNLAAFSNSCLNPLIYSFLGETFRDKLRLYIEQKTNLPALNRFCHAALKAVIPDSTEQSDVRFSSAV
# Some of these results come from one statement about several compounds together.
# Biological target: GPR30 (Homo sapiens, UniProt Q99527)
smiles,measurement,setting,value
C[C@]12CC[C@@H]3c4ccc(O)cc4CC[C@H]3[C@@H]1C[C@@H](O)[C@@H]2O [estriol],"relative binding affinity (RBA), % that of E2",SKBR3 membranes,less than 0.1%
same,"RBA for GPR30, % that of estradiol-17β",discussion summary,less than 1%
